For this test, the target named is Integrin α6 (human (endogenous in T4121 and T387 GSCs)). The experiment in a line: co-IP; lysates of T4121 or T387 GSCs transduced with WISP1 overexpression lentivirus; IP lysis buffer (50 mM Tris-HCl pH 7.8, 137 mM NaCl, 1 mM EDTA, 1% Triton X-100, 10% glycerol); IP with anti-Integrin α6 or anti-Integrin β1 antibody or isotype IgG overnight at 4 °C, protein A/G Plus agarose; immunoblot with anti-WISP1, anti-Integrin α6 and anti-Integrin β1. A general note: A western blot detects proteins with antibodies after separation by electrophoresis.

These are yes or no findings as the source states them, for the method shown. In cells and extracts the contact can be indirect. Binding can be weak; no strength is given.

B1: Wnt-induced signaling protein 1 (WISP1) (ligand, UniProt O95388 23-367)
chain: TALSPAPTTMDFTPAPLEDTSSRPQFCKWPCECPPSPPRCPLGVSLITDGCECCKMCAQQLGDNCTEAAICDPHRGLYCDYSGDRPRYAIGVCAQVVGVGCVLDGVRYNNGQSFQPNCKYNCTCIDGAVGCTPLCLRVRPPRLWCPHPRRVSIPGHCCEQWVCEDDAKRPRKTAPRDTGAFDAVGEVEAWHRNCIAYTSPWSPCSTSCGLGVSTRISNVNAQCWPEQESRLCNLRPCDVDIHTLIKAGKKCLAVYQPEASMNFTLAGCISTRSYQPKYCGVCMDNRCCIPYKSKTIDVSFQCPDGLGFSRQVLWINACFCNLSCRNPNDIFADLESYPDFSEIAN
In the case of B1, the binding entry is recorded as “binds”.

Source of the values: article PMC7295765.
